Measured values reported in patent US20110039947A1, “SURFACE-MODIFIED NANOPARTICLES” (3M Innovative Properties Company, priority 2008, published 2011).
At least one structure is not confirmed: it was looked up by name or label, or the drawing left a doubt.

Assay: Pharmaceutical performance: Aerolizer DPI with Next Generation Pharmaceutical Impactor (NGI)
Type: physicochemical
Settings: nominally 2 mg powder, NGI at 60 lpm for 4 seconds, respirable limit 4.5 micrometers
Method: Samples of micronized lactose and micronised budesonide powder were tested in addition to testing samples of nanoparticle-modified lactose and nanoparticle-modified budesonide powders. The NGI was coupled with a USP throat (United States Pharmacopeia, USP 24 <601>Aerosols, Metered Dose Inhalers, and Dry Powder Inhalers) and operated at a volumetric flow rate of 60 liters per minute (lpm) for a collection time of four seconds. A suitable coupler was affixed to the USP throat to provide an air-tight seal between the DPI device and the throat. For all testing, the stage cups of the NGI were coated with a surfactant to prevent particle bounce and re-entrainment. The amount of lactose or budesonide collected on each component of the NGI testing apparatus was determined by rinsing the component with a measured volume of an appropriate solvent and subjecting the rinsed material to high pressure liquid chromatography (HPLC) analysis with charged aerosol detection to determine lactose or budesonide concentration. Data that was returned from HPLC analysis was analyzed to determine the average amount of drug collected on the DPI and capsule, the USP throat, and on each component of the NGI per delivered dose. Using the individual component values, the respirable fraction and delivery efficiency were calculated for each powder sample. […]

SMILES: CCCC1O[C@@H]2C[C@H]3[C@@H]4CCC5=CC(=O)C=C[C@]5(C)[C@H]4[C@@H](O)C[C@]3(C)[C@]2(C(=O)CO)O1 (some centres unmarked) [Comparative Example C5, Budesonide]
- % Delivery Efficiency: 34%
- % Respirable Fraction: 55%
